Measurements from patent US7288256B1, “T cell epitopes of the major allergens from dermatophagoides (house dust mite)” (Merck Patent GmbH, priority 1991, dated 2007).
Not every detail of the peptide structures is certain; ends, links or a residue may be inferred. Some compounds share one wording; it may come from a single statement. Some results were stated once for a whole list of compounds, not compound by compound. Residues, ends and D or L forms follow the SMILES beside them.

Legend:
[1] = test system: T cell lines primed with purified native Der p I; assay: T cell epitope studies with modified peptides, T cell lines primed with Der p I (Example XIV, FIGS. 31a-b); type: cell-based, human; settings: 18 patients
[2] = test system: Der p I primed T cell lines; assay: Secondary T cell proliferation assay, T cell lines primed in vitro with Der p I (Examples V, VII, XI, XII); type: cell-based, human; settings: for positivity index (mean S.I. x percent of positive responses): 33 patients primed with Der p I; for mean T cell stimulation index (mean S.I.) of positive responses: 33 patients primed with native or recombinant Der p I, only S.I. >= 2 used; for response of Der p I primed T cells to selected Der p I peptides: 33 positive experiments, FIG. 13
[3] = test system: PBMC from mite-allergic patient; assay: Primary PBMC proliferation (3H-thymidine) to Der p I/Der p II proteins and peptides, Example IV; type: cell-based, human; settings: for CPM ± S.D.: 7 days culture; for S.I.: CPM with antigen / CPM medium only
Experimental: Peripheral blood mononuclear cells (PBMC) were purified by Ficoll-Hypaque centrifugation of a peripheral blood specimen from mite-allergic patient and were assayed for proliferation in response to various antigens, i.e., affinity-purified Der p I, affinity purified […], various Der p I and Der p II peptides. For assay, 5×10^4 PBMC were cultured in triplicate microwells for 7 days at 37° C. in the presence of various concentrations of antigen in 200 μl RPMI-1640 containing 5% human AB serum. Each well then received 1 μCi tritiated thymidine for 16 hours. The counts incorporated were collected onto glass fiber filters and processed for liquid scintillation counting. […] The CPM+/− standard deviation are shown. The stimulation index of each response (S.I.) is the ratio of the ^3H-thymidine CPM incorporated by the cells in response to antigen divided by the ^3H-thymidine CPM incorporated by cells in medium only. […] Thus, these peptides contain Der p I or Der p II T cell epitopes recognized by T cells from this particular allergic patient.

[4] = test system: Der p II primed T cell lines; assay: Secondary T cell proliferation assay, T cell lines primed in vitro with Der p II (Examples VIII, X, XI, XII)
[5] = test system: Der f II primed T cell lines; assay: Secondary T cell proliferation assay, T cell lines primed in vitro with Der f II (Examples IX, X, XI); type: cell-based, human; settings: 10 positive experiments, FIG. 11

Compound: CC(C)C[C@H](NC(=O)[C@H](CC(=O)O)NC(=O)[C@H](CC(C)C)NC(=O)[C@H](CO)NC(=O)[C@H](CCC(N)=O)NC(=O)[C@H](CC(N)=O)NC(=O)[C@H](CCCNC(=N)N)NC(=O)[C@@H](N)Cc1c[nH]cn1)C(=O)N[C@@H](C)C(=O)N[C@@H](CCC(=O)O)C(=O)N[C@@H](CCC(N)=O)C(=O)N[C@@H](CCC(=O)O)C(=O)N[C@@H](CC(C)C)C(=O)N[C@H](C(=O)N[C@@H](CC(=O)O)C(=O)N[C@@H](CS)C(=O)N[C@@H](C)C(=O)N[C@@H](CO)C(=O)N[C@@H](CCC(N)=O)C(=O)N[C@@H](Cc1c[nH]cn1)C(=O)NCC(=O)N[C@@H](CS)C(=O)O)C(C)C [DP I-11.1] (H-HRNQSLDLAEQELVDCASQHGC-OH; N-terminus and C-terminus assumed)
- T cell response to peptide [1]: positive responses

Compound: CC(C)C[C@H](NC(=O)[C@H](Cc1ccc(O)cc1)NC(=O)[C@H](C)NC(=O)[C@H](CO)NC(=O)[C@H](CCC(=O)O)NC(=O)[C@@H](NC(=O)[C@H](C)NC(=O)[C@H](C)NC(=O)[C@@H](N)C(C)C)[C@@H](C)O)C(=O)N[C@@H](C)C(=O)N[C@@H](Cc1c[nH]cn1)C(=O)N[C@@H](CCCNC(=N)N)C(=O)N[C@@H](CC(N)=O)C(=O)N[C@@H](CCC(N)=O)C(=O)N[C@@H](CO)C(=O)N[C@@H](CC(C)C)C(=O)N[C@@H](CC(=O)O)C(=O)N[C@@H](CC(C)C)C(=O)N[C@@H](C)C(=O)N[C@@H](CCC(=O)O)C(=O)N[C@@H](CCC(N)=O)C(=O)N[C@@H](CCC(=O)O)C(=O)N[C@@H](CC(C)C)C(=O)N[C@H](C(=O)N[C@@H](CC(=O)O)C(=O)N[C@@H](CS)C(=O)N[C@@H](C)C(=O)N[C@@H](CO)C(=O)N[C@@H](CCC(N)=O)C(=O)O)C(C)C [DP I-22.4] (H-VAATESAYLAHRNQSLDLAEQELVDCASQ-OH; N-terminus and C-terminus assumed)
- T cell response to peptide [1]: positive responses

Compound: CC[C@H](C)[C@H](NC(=O)[C@H](CO)NC(=O)[C@H](CS)NC(=O)[C@H](C)NC(=O)[C@H](CC(N)=O)NC(=O)[C@@H](N)[C@@H](C)O)C(=O)N[C@@H](CC(N)=O)C(=O)NCC(=O)N[C@@H](CC(N)=O)C(=O)N[C@@H](C)C(=O)N1CCC[C@H]1C(=O)N[C@@H](C)C(=O)N[C@@H](CCC(=O)O)C(=O)N[C@H](C(=O)N[C@@H](CC(=O)O)C(=O)N[C@@H](CC(C)C)C(=O)N[C@@H](CCCNC(=N)N)C(=O)N[C@@H](CCC(N)=O)C(=O)N[C@@H](CCSC)C(=O)N[C@@H](CCCNC(=N)N)C(=O)N[C@H](C(=O)N[C@H](C(=O)N[C@H](C(=O)N1CCC[C@H]1C(=O)N[C@H](C(=O)N[C@@H](CCCNC(=N)N)C(=O)N[C@@H](CCSC)C(=O)N[C@@H](CCC(N)=O)C(=O)O)[C@@H](C)CC)[C@@H](C)O)C(C)C)[C@@H](C)O)[C@@H](C)CC [DP I-21.1] (H-TNACSINGNAPAEIDLRQMRTVTPIRMQ-OH; N-terminus and C-terminus assumed)
- positivity index (mean S.I. x percent of positive responses) [2]: at least 150
- mean T cell stimulation index (mean S.I.) of positive responses [2]: at least 4
- response of Der p I primed T cells to selected Der p I peptides [2]: respond significantly
- T cell response to peptide [1]: positive response

Compound: CC(C)C[C@H](NC(=O)[C@H](Cc1ccc(O)cc1)NC(=O)[C@H](C)NC(=O)[C@H](CO)NC(=O)[C@H](CCC(=O)O)NC(=O)[C@@H](NC(=O)[C@H](C)NC(=O)[C@H](C)NC(=O)[C@@H](N)C(C)C)[C@@H](C)O)C(=O)N[C@@H](C)C(=O)N[C@@H](Cc1ccc(O)cc1)C(=O)N[C@@H](CCCNC(=N)N)C(=O)N[C@@H](CC(N)=O)C(=O)N[C@H](C(=O)N[C@@H](CO)C(=O)N[C@@H](CC(C)C)C(=O)N[C@@H](CC(=O)O)C(=O)N[C@@H](CC(C)C)C(=O)N[C@@H](CO)C(=O)N[C@@H](CCC(=O)O)C(=O)N[C@@H](CCC(N)=O)C(=O)N[C@@H](CCC(=O)O)C(=O)N[C@@H](CC(C)C)C(=O)N[C@H](C(=O)N[C@@H](CC(=O)O)C(=O)N[C@@H](CS)C(=O)N[C@@H](C)C(=O)N[C@@H](CO)C(=O)N[C@@H](CCC(N)=O)C(=O)O)C(C)C)[C@@H](C)O [DF I-22.4] (H-VAATESAYLAYRNTSLDLSEQELVDCASQ-OH; N-terminus and C-terminus assumed)
- response of Der p I primed T cells to selected Der f I peptides ([2]; 30 positive experiments, FIG. 15a): respond significantly
- T cell response to peptide [1]: positive responses

Compound: CC[C@H](C)[C@H](NC(=O)[C@H](CO)NC(=O)[C@H](C)NC(=O)[C@H](CCCCN)NC(=O)[C@@H](NC(=O)[C@H](CCC(=O)O)NC(=O)[C@@H](NC(=O)[C@H](CCCCN)NC(=O)[C@H](C)NC(=O)[C@@H](NC(=O)[C@H](CCCCN)NC(=O)[C@@H](NC(=O)[C@H](CC(N)=O)NC(=O)[C@H](CCC(N)=O)NC(=O)[C@H](CC(N)=O)NC(=O)[C@H](C)NC(=O)[C@H](CCC(=O)O)NC(=O)[C@H](Cc1ccccc1)NC(=O)[C@@H](NC(=O)[C@H](C)NC(=O)[C@H](CCC(=O)O)NC(=O)[C@H](CC(C)C)NC(=O)[C@@H](N)CCC(N)=O)C(C)C)[C@@H](C)O)[C@@H](C)O)[C@@H](C)CC)[C@@H](C)CC)C(=O)N[C@@H](CC(=O)O)C(=O)NCC(=O)O [DP II-4] (H-QLEAVFEANQNTKTAKIEIKASIDG-OH; N-terminus and C-terminus assumed)
- CPM ± S.D. ([3]; antigen 10 μg/ml): 2126 ± 25 CPM
- S.I. ([3]; antigen 10 μg/ml): 2.0
- CPM ± S.D. ([3]; antigen 30 μg/ml): 1979 ± 94 CPM
- S.I. ([3]; antigen 30 μg/ml): 1.8
- CPM ± S.D. ([3]; antigen 100 μg/ml): 2314 ± 116 CPM
- S.I. ([3]; antigen 100 μg/ml): 2.2
- S.I. with which this patient responds ([3]; text summary of Table I): at least 2.0
- T cell reactivity of overlapping Der p II peptides ([4]; 26 positive experiments, FIG. 9): significant T cell reactivity
- T-cell reactivity (in words) ([4]; Der p II T-cell map and analogs of parent peptide DpII-22, data not shown): high T-cell reactivity
- response of Der f II primed T cells to Der p II peptides (cross-reactivity) [5]: respond significantly

Compound: CC[C@H](C)[C@H](NC(=O)[C@H](Cc1ccc(O)cc1)NC(=O)[C@@H](N)CCC(=O)O)C(=O)N[C@@H](CCC(N)=O)C(=O)N[C@@H](Cc1c[nH]cn1)C(=O)N[C@@H](CC(N)=O)C(=O)NCC(=O)N[C@H](C(=O)N[C@H](C(=O)N[C@@H](CCC(N)=O)C(=O)N[C@@H](CCC(=O)O)C(=O)N[C@@H](CO)C(=O)N[C@@H](Cc1ccc(O)cc1)C(=O)N[C@@H](Cc1ccc(O)cc1)C(=O)N[C@@H](CCCNC(=N)N)C(=O)N[C@@H](Cc1ccc(O)cc1)C(=O)N[C@H](C(=O)N[C@@H](C)C(=O)N[C@@H](CCCNC(=N)N)C(=O)N[C@@H](CCC(=O)O)C(=O)N[C@@H](CCC(N)=O)C(=O)N[C@@H](CS)C(=O)N[C@@H](CCCNC(=N)N)C(=O)N[C@@H](CCCNC(=N)N)C(=O)N1CCC[C@H]1C(=O)N[C@@H](CC(N)=O)C(=O)N[C@@H](C)C(=O)N[C@@H](CCC(N)=O)C(=O)O)C(C)C)C(C)C)C(C)C [DP I-23.1] (H-EYIQHNGVVQESYYRYVAREQCRRPNAQ-OH; N-terminus and C-terminus assumed)
- positivity index (mean S.I. x percent of positive responses) [2]: at least 150
- mean T cell stimulation index (mean S.I.) of positive responses [2]: at least 4
- response of Der p I primed T cells to selected Der p I peptides [2]: respond significantly
- T cell response to peptide [1]: positive
